The structures appear in SMILES notation. Several values for one entry are separate records, joined by “and”; a condition that tells them apart may be missing. Identical values can stand only once. This is one part of the list. These are further read-outs of the screen, such as a control signal, another cell line or another target. No call is given for them. Most of these compounds were active or inconclusive in the main read-out, so they are no random draw. Words in brackets tell the shape of the fitted curve; partial curves, single points and poor fits give uncertain potencies.

The test in a line: Cell signaling CRE-BLA (Fsk stim). The conditions noted are these: CHO CRE-bla reporter (cAMP response element driving beta-lactamase), forskolin EC10, beta-lactamase ratio; measured here: 460 nm blue channel. The method in brief: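 CRE-bla CHO cells stimulated with EC10 NKH 477 (water-soluble forskolin) and compound titrations, 3 h at 37C; beta-lactamase read with CCF4 after 2 h at room temperature. Activity from 460/530 nm emission ratio, AC50 values for positive or negative modulation.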
Usually AC50 stands for the concentration giving half of the maximal activity seen. On to `Cc1ccc(C)c(-n2c(N)c(C(N)=O)sc2=S)c1`, for which the half-maximal activity concentration (AC50) is 0.794 µM [falling, partial curve, poor fit].

On to `COc1ccccc1N1CCN(C(=O)CCn2c(=O)[nH]c3ccsc3c2=O)CC1`, for which the AC50 was 0.398 µM [falling, partial curve].

For the compound `Cc1cc(C)cc(N(CCC#N)C(=O)CSc2nc3nc(C)cc(C)n3n2)c1`, the concentration at half-maximal activity (AC50) is 10 µM [rising, partial curve].

`Cc1cccc(CNc2ncnc3ccc(-c4ccoc4)cc23)c1`: the half-maximal activity concentration (AC50) was 0.0631 µM [falling, full curve].

For `Cc1cccn2c(=O)c3cc(C#N)c(=O)n(Cc4cccnc4)c3nc12`, the concentration at half-maximal activity (AC50) is 10 µM [rising, partial curve].

As for `Cc1oc(-c2cccs2)nc1CS(=O)CC(=O)NCCc1ccccc1` (stereo not given), the AC50 was 15.8 µM [falling, partial curve].

Consider `CSc1cccc(NC(=O)C2CCN(S(=O)(=O)c3ccc(F)cc3)CC2)c1`, for which the half-maximal activity concentration (AC50) is 10 µM [falling, single point].

For the compound `CCCc1nc(NCc2ccco2)c(C#N)c2c1COC(C)(C)C2`, the half-maximal activity concentration (AC50) was 1.26 µM [rising, partial curve].

Turning to `COc1ccccc1-c1cc(C(F)(F)F)nc(S(=O)(=O)CCCC(=O)NC(C)C)n1`, the AC50 was 2 µM [falling, full curve, poor fit].

With `CCCc1ncc(C(O)c2cccc3ccccc23)n1C` (stereo not given), the AC50 was 0.00398 µM [falling, full curve, poor fit].

On to `CCOP(C)(=O)C1(C(=O)OCc2ccccc2)CC1` (stereo not given), for which the AC50 was 1 µM [falling, full curve].

For `COc1ccc(OC)c(NC=C2C(=O)OC3(CCCCC3)OC2=O)c1`, the AC50 was 12.6 µM [rising, partial curve].

For the compound `COc1cc2c(C(=O)NCc3ccccn3)cn(CC(C)C)c(=O)c2cc1OC`, the half-maximal activity concentration (AC50) was 5.01 µM [rising, partial curve].

With `Nc1ccc(C2CCCc3nonc32)c2nonc12` (stereo not given), the half-maximal activity concentration (AC50) is 0.398 µM [falling, full curve, poor fit].

Turning to `CCCCCn1c(Br)nc2c1c(=O)n(CC(N)=O)c(=O)n2C`, the concentration at half-maximal activity (AC50) is 3.16 µM [falling, partial curve, poor fit].

With `CCOc1ccc(OCc2ccc(C(=O)Nc3ccc(Cl)cn3)o2)cc1`, the AC50 was 25.1 µM [rising, single point].

Turning to `O=c1c(-c2ccccc2)nc2cnc(N3CCOCC3)nc2n1C[C@H]1CCCO1`, the AC50 is 2.51 µM [rising, full curve].

With `CC1CCC(NC(=O)c2ccc(CS(=O)(=O)Cc3ccccc3F)o2)CC1` (stereo not given), the half-maximal activity concentration (AC50) was 0.0501 µM [rising, full curve].

For the compound `Cc1cc(C)c2c(C)nn(C3CCCCC3)c2n1`, the AC50 is 10 µM [rising, partial curve].

Consider `COc1cccc(-c2nc(Nc3ccncc3)c3ccccc3n2)c1`, for which the AC50 is 3.98 µM [rising, full curve].

On to `O=C(c1cc2nc(-c3ccco3)cc(C(F)(F)F)n2n1)N1CCCCCC1`, for which the concentration at half-maximal activity (AC50) is 10 µM [rising, partial curve].

Take `CCOc1cc(C(=O)NC)cc(OCC)c1OCC`: the half-maximal activity concentration (AC50) was 3.98 µM [falling, single point].

Take `COc1ccc(-c2nc(CCNC(=O)c3ccco3)cs2)cc1OC`: the half-maximal activity concentration (AC50) is 2 µM [rising, full curve].

`CC(C)(C)c1ccc(S(=O)(=O)/C=C\C#N)cc1`: the half-maximal activity concentration (AC50) was 25.1 µM [falling, partial curve] and 3.98 µM [falling, full curve].

`c1ccc(CCNC2=NCCCS2)cc1`: the half-maximal activity concentration (AC50) is 0.1 µM [falling, single point].

For `O=C(c1cccs1)n1cc(C(=S)N2CCOCC2)c2ccccc21`, the half-maximal activity concentration (AC50) was 1 µM [falling, single point].

Turning to `CC(C)C(=O)Nc1nnc(Cc2ccccc2)s1`, the AC50 is 0.398 µM [rising, partial curve].

Turning to `CC1(C)NC(=O)N(CC(O)COc2ccc(-c3ccc(C#N)cc3)cc2)C1=O` (stereo not given), the AC50 is 0.1 µM [falling, single point].

In the case of `COc1ccc(OC(C)=O)c(C2c3cc(OC)c(OC)cc3CCN2C(C)=O)c1` (stereo not given), the AC50 was 10 µM [rising, single point].

With `O=C(CN1C(=O)CSC1=O)Nc1ccc2c(c1)OCCO2`, the concentration at half-maximal activity (AC50) is 25.1 µM [falling, single point].

As to `Cc1cc(=O)n2nc(N3CCC(C(=O)N4CCN(Cc5ccccc5)CC4)CC3)sc2n1`, the AC50 was 25.1 µM [rising, single point].

With `CCOc1ccccc1Oc1coc2cc(O)ccc2c1=O`, the concentration at half-maximal activity (AC50) was 0.316 µM [rising, full curve].

For the compound `COC(=O)c1ccccc1NC(=O)c1ccco1`, the AC50 is 10 µM [rising, partial curve].

As for `COc1cc(C)c(S(=O)(=O)Nc2ccc(CC(=O)O)cc2)cc1C`, the AC50 is 0.2 µM [falling, full curve].

Take `CCCC(=O)Nc1cc(OCC)c(NC(=O)NC2CCCCC2)cc1OCC`: the AC50 was 6.31 µM [falling, single point].

Take `OC(c1ccccc1)c1nc2ccccc2s1` (stereo not given): the AC50 was 0.00631 µM [falling, full curve, poor fit].

Take `O=C(Nc1ccc(-c2nc3ccccc3o2)c(O)c1)c1cc(-n2cnnc2)ccc1Cl`: the AC50 was 15.8 µM [rising, partial curve].

In the case of `COc1ccccc1NC(=O)C1CCN(c2ncccn2)CC1`, the AC50 is 0.00398 µM [falling, full curve].

For the compound `Cc1ccsc1C(=O)OCC(=O)Nc1sccc1C(N)=O`, the AC50 is 2 µM [rising, partial curve].

Regarding `Cc1cccc(NC(=O)c2ccccn2)c1C`, the AC50 is 12.6 µM [falling, partial curve].

Regarding `Cc1cccc(OCCCC(=O)O)c1`, the AC50 is 0.1 µM [rising, single point].

`COC(=O)CSc1nnc(-c2ccco2)n1Cc1ccco1`: the AC50 was 5.01 µM [falling, single point].

Turning to `Brc1ccccc1Cn1c(-c2cncs2)nc2ccccc21`, the half-maximal activity concentration (AC50) is 3.16 µM [rising, partial curve].

For the compound `O=C(c1ccco1)N1CCN(c2ccc(Cl)c(Cl)c2)CC1`, the concentration at half-maximal activity (AC50) is 3.98 µM [falling, full curve].

Turning to `Cn1c(=O)c2c(ncn2Cc2cc(-c3ccccc3)no2)n(C)c1=O`, the AC50 was 7.94 µM [rising, partial curve].

The values are drawn from PubChem BioAssay AID662 (National Center for Advancing Translational Sciences (NCATS), 2007).
